Source: patent US5541174A, “Analgesic method” (priority 1995, dated 1996)

How the values were obtained:
[1] = tested on: acetic acid induced writhing in mice; assay: Acetic acid-induced writhing test; format: in vivo, ICR male mice
Description: 1. Acetic acid-induced writhing test as described in Koster et al., "Acetic Acid for Analgesic Screening", Fed. Proc. 18, 412 (1959), incorporated by reference herein; and
(§1) Groups of 10 ICR male mice (Taisho Pharmaceutical Co. Research Center) were used to study each dose of every compound. Ligands or complexes were administered orally or subcutaneously in 0.1 ml of vehicle per 10 g of body weight 30 minutes before the intrapertioneal injection of 0.1 ml of 0.7% acetic acid solution per 10 g of body weight. Number of writhes were counted for each mouse during a period of 10 to 20 min after acetic acid injection. Inhibitory percent was calculated by comparison with the number of writhes in the non-treated control, vehicle-treated, and acetic acid-injected group. The ED50 value and 95% confidence limits were calculated from the inhibitory percent by the method of Litchfield and Wilcoxon.

[2] = tested on: acetic acid-induced writhing mouse pain model; assay: Comparison/potentiation of analgesic activity with morphine in the acetic acid-induced writhing mouse pain model; format: in vivo
Description: as §1

In the case of `CN1CC[C@]23c4c5ccc(O)c4O[C@H]2[C@@H](O)C=C[C@H]3[C@H]1C5` [morphine, reference compound], the ED50 ([1]; Mus musculus, sc, read-out: ED50 (W)) is reported as 2 µmol/kg, the “ED50 (W)” value ([1]; s.c., hydrochloride salt in saline) is reported as 0.002 mmol/kg and the “% Inhibition” value ([1]; s.c., hydrochloride salt in saline, 0.001 mmol/kg) is reported as 35%. For the same compound, the “% Inhibition” value ([2]; morphine 1.0 umol/kg + Cu(II)2 (indomethacin)4 0.5 umol/kg) was 50%, the ED50 ([2]; morphine + Cu(II)2 (indomethacin)4 0.5 umol/kg) was 1.0 µmol/kg and the “% Inhibition” value ([2]; morphine alone 1.0 umol/kg, dose footnote: orally) was 35%. The ED50 ([2]; morphine alone, dose footnote: orally) was 1.6 µmol/kg.
